Measured data: PubChem BioAssay AID1259308 (NCATS, 2017)
Here is a random part of about 59,000 reagents tested. Over the whole deposit, about 1,510 (2.6%) were called active. 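Calls use total luciferase alone and ignore viability, so some active siRNAs may act by altering cell number.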 Reagents against one gene are numbered here.

Screen: 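Genes whose loss raises luciferase production in HEK293 cells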 (primary screen)
Cell system: human HEK293 embryonic kidney cells stably expressing firefly luciferase (HEK-CMV-Luc2-Hygro)
Reagents: single siRNA against human genes, 0.8 pmol siRNA per well
Duration: 72 h
Detection: 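Reporter luminescence and viable-cell signal on separate replicate plates, given as percent of non-targeting control and median/MAD z-scores, plus per-cell luciferase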
Reading the numbers: total luciferase, z-score and total luciferase, % of control: higher = more reporter protein produced; luciferase per cell, z-score: higher = more reporter output per viable cell; viable cells, % of control: higher = more viable cells
Active means: 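An siRNA counts as active if its total luciferase robust z-score exceeds 3; genes with two or more such siRNAs out of three were retested with fresh siRNAs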
Meaning of the calls: active = raised luciferase; inactive = no rise

gene | reagent no. | total luciferase, z-score | total luciferase, % of control | luciferase per cell, z-score | viable cells, % of control | Outcome
PTPRH (GeneID 5794) | 1 | 0.824 | 98.3 | 0.468 | 97.1 | inactive
PTPRH (GeneID 5794) | 2 | -1.87 | 44.6 | -2 | 84.5 | inactive
PTPRH (GeneID 5794) | 3 | -0.858 | 64.8 | -0.644 | 85.8 | inactive
CFAP251 (GeneID 144406) | 1 | -2.71 | 28 | -3.23 | 73.3 | inactive
CFAP251 (GeneID 144406) | 2 | -1.04 | 61.2 | -1.33 | 97.2 | inactive
CFAP251 (GeneID 144406) | 3 | -1.28 | 56.5 | -0.866 | 79.3 | inactive
PLXNA4 (GeneID 91584) | 1 | 0.0459 | 82.8 | 1.05 | 70.1 | inactive
PLXNA4 (GeneID 91584) | 2 | 0.437 | 90.6 | 0.681 | 84.6 | inactive
PLXNA4 (GeneID 91584) | 3 | 0.127 | 84.4 | -0.267 | 101 | inactive
OR2H2 (GeneID 7932) | 1 | 0.415 | 90.1 | 0.0596 | 99.2 | inactive
OR2H2 (GeneID 7932) | 2 | -1.6 | 50 | 0.199 | 53 | inactive
OR2H2 (GeneID 7932) | 3 | 0.784 | 97.5 | 0.345 | 99.5 | inactive
SMARCD3 (GeneID 6604) | 1 | 2.13 | 124 | 0.808 | 112 | inactive
SMARCD3 (GeneID 6604) | 2 | -0.124 | 79.4 | -0.233 | 94.4 | inactive
SMARCD3 (GeneID 6604) | 3 | 0.533 | 92.5 | -0.109 | 106 | inactive

Copied from the list:
Entry for PTPRH (GeneID 5794) #1 under “total luciferase, z-score”: 0.824
Under “total luciferase, % of control”, PLXNA4 (GeneID 91584) #1 is entered as 82.8
Result for SMARCD3 (GeneID 6604) #2 in “luciferase per cell, z-score”: -0.233

Further reagents follow:
gene | reagent no. | total luciferase, z-score | total luciferase, % of control | luciferase per cell, z-score | viable cells, % of control | Outcome
NGRNP1 (GeneID 730129) | 1 | 0.274 | 87.3 | 0.505 | 85.5 | inactive
NGRNP1 (GeneID 730129) | 2 | 2.9 | 139 | 2.55 | 79.5 | inactive
NGRNP1 (GeneID 730129) | 3 | 1.1 | 104 | 1.4 | 80.3 | inactive
EHD4 (GeneID 30844) | 1 | 0.806 | 97.9 | 0.619 | 93 | inactive
EHD4 (GeneID 30844) | 2 | 0.184 | 85.6 | -0.409 | 106 | inactive
EHD4 (GeneID 30844) | 3 | -0.286 | 76.2 | -0.493 | 96.9 | inactive
CCR10 (GeneID 2826) | 1 | -0.375 | 74.4 | -0.782 | 102 | inactive
CCR10 (GeneID 2826) | 2 | 2.13 | 124 | 0.566 | 120 | inactive
CCR10 (GeneID 2826) | 3 | 0.056 | 83 | 0.847 | 74.2 | inactive
